According to the supplement of paper PMC3334620:
Whole data set: some 33,000 sequences, median “E-score (-0.5 to 0.5)” near -0.016, cut for the highest 2% near 0.3. Some of the results follow.

The sequences below were run against T1, Yer184c (UniProt P39961) (assay: PBM E-score (8-mer binding enrichment) (E-score (-0.5 to 0.5)); higher = stronger / more preferred TF binding). Conditions: protein concentration: 100 nM; construct: GST-full length.
T1 sequence: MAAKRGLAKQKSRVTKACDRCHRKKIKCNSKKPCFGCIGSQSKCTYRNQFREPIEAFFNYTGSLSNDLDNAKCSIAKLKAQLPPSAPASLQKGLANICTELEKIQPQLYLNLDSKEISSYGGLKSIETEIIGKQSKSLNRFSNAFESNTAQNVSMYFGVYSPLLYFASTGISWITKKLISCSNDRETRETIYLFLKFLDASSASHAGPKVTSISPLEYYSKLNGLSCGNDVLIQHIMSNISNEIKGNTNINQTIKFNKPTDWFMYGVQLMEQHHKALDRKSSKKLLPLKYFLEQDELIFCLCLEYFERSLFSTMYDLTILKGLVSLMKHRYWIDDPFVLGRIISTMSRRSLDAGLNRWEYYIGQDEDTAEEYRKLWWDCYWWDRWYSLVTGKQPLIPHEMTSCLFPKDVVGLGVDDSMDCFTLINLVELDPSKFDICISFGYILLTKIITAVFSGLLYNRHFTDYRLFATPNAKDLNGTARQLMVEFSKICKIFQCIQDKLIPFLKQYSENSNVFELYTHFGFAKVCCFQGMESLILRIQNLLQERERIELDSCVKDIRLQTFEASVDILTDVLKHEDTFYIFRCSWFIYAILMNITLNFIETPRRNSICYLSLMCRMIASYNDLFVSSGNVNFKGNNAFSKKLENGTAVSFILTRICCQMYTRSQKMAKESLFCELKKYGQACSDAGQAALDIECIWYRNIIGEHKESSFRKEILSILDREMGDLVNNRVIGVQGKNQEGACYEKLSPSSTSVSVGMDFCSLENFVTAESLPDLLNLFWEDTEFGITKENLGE
In short: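 Each ungapped eight-base word and its reverse complement, pooled, received an E-score from the Universal PBM Analysis Suite. Underlying scans, normalised with masliner, recorded fluorescent anti-GST bound to GST-tagged yeast transcription factors. These were applied at about 100-200 nM to universal all-10-mer Agilent arrays double-stranded by primer extension.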

First: ATCACAGC
Second: AATGGGCC
The “PBM E-score” value of the first is higher: 0.0527 for the first, -0.107 for the second.

Going from CCCTGATC to ACCGGTCG, the “PBM E-score” value rises from -0.171 to 0.156.

First: CTGTCATA
Second: CCCATCAC
The “PBM E-score” value of the first is higher: -0.192 for the first, -0.228 for the second.

Going from CGAGAAGC to CCTGCTAC, the “PBM E-score” value falls from -0.00453 to -0.0227.

Compared with ACAGAACA, ACTCCGCA is lower in “PBM E-score” value: 0.0718 for the first, -0.084 for the second.

First: CTATCTTA
Second: GCTAAATA
The “PBM E-score” value of the first is lower: 0.0105 for the first, 0.0302 for the second.

First: CCGGGTGC
Second: CAAATGTA
The “PBM E-score” value of the first is higher: 0.179 for the first, 0.0845 for the second.

Compared with CTCAACAG, AGGTTACT is higher in “PBM E-score” value: -0.0543 for the first, 0.0631 for the second.

First: CAATATCA
Second: GTCAGAAC
The “PBM E-score” value of the first is higher: 0.0165 for the first, -0.053 for the second.

Compared with CAGCGGAA, GGAGTTAC is lower in “PBM E-score” value: 0.116 for the first, 0.0326 for the second.

Going from CCGACCCG to GACGATTA, the “PBM E-score” value falls from 0.122 to 0.0324.

Going from GAAGACGC to CACCCCGG, the “PBM E-score” value rises from -0.0156 to -0.00956.

Going from AATCACAC to GCCATAGC, the “PBM E-score” value falls from 0.145 to -0.138.

First: CCTGTAAC
Second: AAATCATC
The “PBM E-score” value of the first is higher: -0.0354 for the first, -0.0672 for the second.

Compared with AGACTCTG, AAAAATGT is higher in “PBM E-score” value: -0.113 for the first, 0.0248 for the second.

Compared with CCCAACAC, ACTATAAT is higher in “PBM E-score” value: -0.259 for the first, 0.0807 for the second.

First: CACTATGA
Second: AGGAAATC
The “PBM E-score” value of the first is lower: -0.0175 for the first, 0.0763 for the second.

First: ACGTTGCG
Second: CCACAAAA
The “PBM E-score” value of the first is lower: 0.026 for the first, 0.123 for the second.

Going from TTATCCAA to GACGGAAC, the “PBM E-score” value falls from 0.181 to 0.125.

First: AGCAGTGG
Second: AGGTCTGA
The “PBM E-score” value of the first is lower: -0.14 for the first, -0.0793 for the second.

Going from CTGCGACC to AACGCCGA, the “PBM E-score” value rises from -0.136 to 0.415.

Compared with ATAGCGGA, GGACAATA is higher in “PBM E-score” value: 0.011 for the first, 0.193 for the second.

Compared with CTAGCTTA, AGCGGAAC is higher in “PBM E-score” value: -0.0824 for the first, 0.194 for the second.

Compared with CCTTGCCG, AGAAAAAT is lower in “PBM E-score” value: 0.124 for the first, 0.117 for the second.

Compared with ACTCGAGG, GACAGCGC is higher in “PBM E-score” value: -0.0549 for the first, 0.099 for the second.

First: AATGATCC
Second: AGAACAAG
The “PBM E-score” value of the first is lower: 0.104 for the first, 0.143 for the second.

First: GTTGTATA
Second: AAGTAGCT
The “PBM E-score” value of the first is higher: 0.12 for the first, -0.23 for the second.

Compared with AAGAGGCA, CCAAGCAA is lower in “PBM E-score” value: -0.0313 for the first, -0.244 for the second.

Compared with AGTTAGAG, CTGTTTCC is higher in “PBM E-score” value: -0.0923 for the first, 0.0995 for the second.

First: CACGTGCC
Second: AGAATTGA
The “PBM E-score” value of the first is lower: -0.0707 for the first, 0.00876 for the second.

First: GTTAGTGA
Second: AAAGTCGG
The “PBM E-score” value of the first is lower: -0.105 for the first, 0.0699 for the second.

Going from ACGTGTGC to CGGAAGAC, the “PBM E-score” value rises from -0.345 to 0.271.

Going from CTTTAGCA to GCCTTAAA, the “PBM E-score” value rises from -0.0568 to 0.201.

Going from AAGTTGGA to ACATGTGG, the “PBM E-score” value falls from 0.0404 to -0.0584.

Compared with CGTTAGGA, CGGTTTAA is higher in “PBM E-score” value: -0.0109 for the first, 0.151 for the second.

Compared with ACGCCCAT, CACTATTA is higher in “PBM E-score” value: -0.096 for the first, 0.0652 for the second.

Going from CATCAGAC to CGATATTA, the “PBM E-score” value rises from 0.0314 to 0.343.

Compared with ACCCATGG, CCATGAGG is higher in “PBM E-score” value: -0.171 for the first, -0.14 for the second.

Going from GCAGAAAA to CTTTCATC, the “PBM E-score” value falls from 0.132 to -0.13.

Compared with TCATACGA, CGCGGCCC is higher in “PBM E-score” value: 0.0208 for the first, 0.0857 for the second.

Going from GAGCTGAC to CAGATTCA, the “PBM E-score” value falls from 0.166 to -0.0469.

Going from ACCCTTCC to GTGGTAAA, the “PBM E-score” value rises from -0.0895 to 0.0121.

First: GATTCTGC
Second: GCGATCGA
The “PBM E-score” value of the first is higher: 0.188 for the first, 0.044 for the second.
